Structures can show the parent of a compound that is named as a salt. The list shows a part of the results. The calls rarely recur for the same compound in another form.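 Kinases, fused to nanoluciferase, were expressed in K562 cells; luminescence was measured every 4 h from 2 to 18 h as percent of control (DMSO = 100%, positive control = 0%). A time point is decreased if signal falls significantly (2 sigma). Hits were called by the authors by a rule that is not shown; the count of time points alone does not decide it.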
Molecular target: CSK (UniProt P41240)
Test: kinase-Nluc reporter destabilization hit call (1 = scored as downregulated) (binary); higher = compound decreases kinase abundance
Settings: K562; 2-18 h

Sequences of proteins named here, by UniProt entry; tags and fusion partners are left off. A change or cut given only in a name is not applied to a line headed by its entry.
UniProt P41240: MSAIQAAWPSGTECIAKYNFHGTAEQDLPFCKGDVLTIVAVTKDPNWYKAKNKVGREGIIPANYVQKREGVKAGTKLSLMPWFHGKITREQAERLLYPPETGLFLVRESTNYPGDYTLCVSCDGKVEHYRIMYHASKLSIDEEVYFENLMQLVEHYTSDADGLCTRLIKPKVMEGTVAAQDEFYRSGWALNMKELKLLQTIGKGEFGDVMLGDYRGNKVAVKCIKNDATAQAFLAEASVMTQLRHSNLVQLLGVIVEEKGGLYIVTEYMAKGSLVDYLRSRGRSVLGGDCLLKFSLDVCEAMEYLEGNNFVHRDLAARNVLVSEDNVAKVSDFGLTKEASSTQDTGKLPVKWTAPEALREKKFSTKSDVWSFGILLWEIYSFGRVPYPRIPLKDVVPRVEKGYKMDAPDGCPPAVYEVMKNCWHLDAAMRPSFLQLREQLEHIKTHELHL

kinase-Nluc reporter destabilization hit call, inactive:
N#Cc1ccc2[nH]c(O)c(-c3ccc(CN4CCOCC4)cn3)c2c1 (10 µM) 0
O=C1NCCc2[nH]c(-c3ccnc(-c4cnc5ccccc5c4)c3)cc21 (10 µM) 0
Oc1cc(O)cc(/C=C/c2ccc(O)c(O)c2)c1 [Piceatannol] (10 µM) 0
O=C(NOC[C@H](O)CO)c1ccc(F)c(F)c1Nc1ccc(I)cc1F (2.5 µM) 0
Cn1c(=O)n(-c2ccc(C(C)(C)C#N)cc2)c2c3cc(-c4cnc5ccccc5c4)ccc3ncc21 [Dactolisib (Tosylate)] (10 µM) 0
CCCCNc1ncc(-c2ccc(CN3CCOCC3)cn2)c(NC2CCC(O)CC2)n1 (stereo not given) (10 µM) 0
O=C(Nc1cc(C(F)(F)F)ccc1N1CCN(Cc2ccccn2)CC1)c1ccc(-c2ccncc2)o1 (10 µM) 0
CC[C@H](CO)Nc1nc(NCc2ccccc2)c2ncn(C(C)C)c2n1 [Seliciclib] (10 µM) 0
COC(=O)c1ccc2c(C(=Nc3ccc(N(C)C(=O)CN4CCN(C)CC4)cc3)c3ccccc3)c(O)[nH]c2c1 [Nintedanib] (2.5 µM) 0
COc1cc(F)cc([C@@H](CO)NC(=O)[C@@H](C)N2Cc3ccc(-c4nc(NC5CCOCC5)ncc4Cl)cc3C2=O)c1 [ERK1/2 inhibitor 2] (10 µM) 0
CC(C)c1ccc2oc3nc(N)c(C(=O)O)cc3c(=O)c2c1 [Amlexanox] (10 µM) 0
CN(C)C[C@@H]1CCn2cc(c3ccccc32)C2=C(C(=O)NC2=O)c2cn(c3ccccc23)CCO1 [Ruboxistaurin (hydrochloride)] (10 µM) 0
CCc1nc(-c2cccc(C)c2)c(-c2ccnc(NC(=O)c3ccccc3)c2)s1 (10 µM) 0
CCOc1cc2ncc(-c3cc(N)nc(F)c3)n2cc1S(=O)(=O)C(C)(C)C (10 µM) 0
CC(C)(/C=C(\C#N)C(=O)N1CCC[C@@H](n2nc(-c3ccc(Oc4ccccc4)cc3F)c3c(N)ncnc32)C1)N1CCN(C2COC2)CC1 (2.5 µM) 0
CCCn1cnc2c(NCc3ccccc3)nc(NC(CC)CO)nc21 (stereo not given) [Ca2+ channel agonist 1] (2.5 µM) 0
Brc1c(Br)c(Br)c2n[nH]nc2c1Br (10 µM) 0
Nc1nc(OCC2CCCCC2)c2[nH]cnc2n1 (10 µM) 0
COc1ccc(Oc2cc(NCCC(F)(F)F)c3ncc(-c4ccc(C(=O)NC5CC5)c(C)c4)n3n2)c(F)c1F (2.5 µM) 0
COc1cc(C(=O)NC2CCN(C)CC2)c(F)cc1Nc1ncc2c(n1)N(C1CCCC1)CC(F)(F)C(=O)N2C [TAK-960 (dihydrochloride)] (2.5 µM) 0
COc1ccc(NC(=O)N2CCN(c3nc(N)nc4c3cnn4C)[C@@H](C)C2)c(C)c1 (10 µM) 0
O=C(Nc1ccc(-c2ccnc(Nc3ccc(N4CCOCC4)cc3)n2)cc1)C1CCCN1 (stereo not given) (10 µM) 0
COc1nccc(-c2c(-c3ccc(F)cc3)ncn2C2CCC(O)CC2)n1 (stereo not given) (10 µM) 0
NC(=O)c1ccc2nc(-c3ccc(Oc4ccc(Cl)cc4)cc3)[nH]c2c1 (10 µM) 0
Cc1cc(C)c(/C=C2\C(=O)Nc3ccccc32)[nH]1 [Semaxinib] (10 µM) 0
COc1ccc(COc2ccc(Cc3cnc(N)nc3N)cc2OC)cc1 (10 µM) 0
CN1CCN(c2ccc(Nc3cc(-c4cccc(-n5ccc6cc(C7CC7)cc(F)c6c5=O)c4CO)cn(C)c3=O)nc2)CC1 (2.5 µM) 0
C=CC(=O)N1CCC[C@@H](n2nc(-c3ccc(Oc4ccccc4)cc3)c(C(N)=O)c2N)C1 [Btk inhibitor 2] (10 µM) 0
Cc1c(NC(=O)c2cc3c(s2)CCCC3)cccc1-c1cn(C)c(=O)c(Nc2ccc([C@@H]3C(=O)N(C)CCN3C)cc2)n1 (10 µM) 0
CCOc1ccn(-c2ccc(F)cc2)c(=O)c1C(=O)Nc1ccc(Oc2ccnc(N)c2Cl)c(F)c1 (10 µM) 0
CCn1c(=O)c2cc(C(N)=O)c(N)nc2n(C2CC2)c1=O (10 µM) 0
COc1cc(C(=O)NC2CCN(C)CC2)ccc1Nc1ncc2c(n1)N(C1CCCC1)CC(F)(F)C(=O)N2C (10 µM) 0
CCN1CCN(c2ccc(Nc3cc(N(C)C(=O)Nc4c(Cl)c(OC)cc(OC)c4Cl)ncn3)cc2)CC1 [Infigratinib] (10 µM) 0
CN1CCN(S(=O)(=O)c2ccc(-c3cnc(N)c(C(=O)Nc4cccnc4)n3)cc2)CC1 (10 µM) 0
Cc1cccc([C@@H](CO)NC(=O)[C@@H](C)N2Cc3ccc(-c4nc(NC5CCOCC5)ncc4Cl)cc3C2=O)c1 [ERK1/2 inhibitor 1] (10 µM) 0
COc1cc(CCc2cc(-c3nc4ccc(N5CCN(C)CC5)cc4[nH]3)n[nH]2)cc(OC)c1 (10 µM) 0
Cc1cc(CS(=O)(=O)c2ccccc2)cc(OCc2ccc(CN3CCC[C@@H]3CO)cc2)c1 [PF-543 (Citrate)] (10 µM) 0
Cc1[nH]c(/C=C2\C(=O)Nc3ccc(S(=O)(=O)Cc4c(Cl)cccc4Cl)cc32)c(C)c1C(=O)N1CCC[C@@H]1CN1CCCC1 (2.5 µM) 0
Cc1cc(F)c(C(=O)Nc2cccc(-c3nncn3C(C)C)n2)cc1-n1cnc(C2CC2)c1 [Selonsertib] (10 µM) 0
COCCOc1cc2nccc(Nc3n[nH]c(C)c3C)c2cc1S(=O)(=O)C(C)(C)C [RIP2 kinase inhibitor 2] (2.5 µM) 0

Quoted at random: two compounds from above
kinase-Nluc reporter destabilization hit call, inactive:
COc1ccc(COc2ccc(Cc3cnc(N)nc3N)cc2OC)cc1 (10 µM) 0
C=CC(=O)N1CCC[C@@H](n2nc(-c3ccc(Oc4ccccc4)cc3)c(C(N)=O)c2N)C1 [Btk inhibitor 2] (10 µM) 0

From the supplement of paper PMC12823440, “Inhibitors supercharge kinase turnover through native proteolytic circuits” (Nature, 2025)
